Experimental data reported in article PMC6612395.
No constants are given. Whether binding was seen depends on the method and setting. Binding seen in cells or lysates may run through a third protein. Some entries that bind do so weakly or less than the wild type.

Protein sequences, listed by entry. Tags and fused reporters are not part of them. Residues count along the entry.
UniProt P98161, residues 3895-4302: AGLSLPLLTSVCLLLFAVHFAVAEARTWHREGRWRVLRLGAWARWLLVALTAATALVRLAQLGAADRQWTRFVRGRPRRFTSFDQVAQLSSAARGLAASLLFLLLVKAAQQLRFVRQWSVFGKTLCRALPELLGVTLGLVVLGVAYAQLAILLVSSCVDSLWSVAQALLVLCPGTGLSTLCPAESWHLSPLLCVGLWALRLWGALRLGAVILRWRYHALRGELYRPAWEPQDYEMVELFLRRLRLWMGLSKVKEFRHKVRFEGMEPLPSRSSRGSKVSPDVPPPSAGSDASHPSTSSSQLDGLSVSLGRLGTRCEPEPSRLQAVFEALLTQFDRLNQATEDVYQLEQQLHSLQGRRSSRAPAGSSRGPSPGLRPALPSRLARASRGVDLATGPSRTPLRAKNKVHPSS
UniProt P19525: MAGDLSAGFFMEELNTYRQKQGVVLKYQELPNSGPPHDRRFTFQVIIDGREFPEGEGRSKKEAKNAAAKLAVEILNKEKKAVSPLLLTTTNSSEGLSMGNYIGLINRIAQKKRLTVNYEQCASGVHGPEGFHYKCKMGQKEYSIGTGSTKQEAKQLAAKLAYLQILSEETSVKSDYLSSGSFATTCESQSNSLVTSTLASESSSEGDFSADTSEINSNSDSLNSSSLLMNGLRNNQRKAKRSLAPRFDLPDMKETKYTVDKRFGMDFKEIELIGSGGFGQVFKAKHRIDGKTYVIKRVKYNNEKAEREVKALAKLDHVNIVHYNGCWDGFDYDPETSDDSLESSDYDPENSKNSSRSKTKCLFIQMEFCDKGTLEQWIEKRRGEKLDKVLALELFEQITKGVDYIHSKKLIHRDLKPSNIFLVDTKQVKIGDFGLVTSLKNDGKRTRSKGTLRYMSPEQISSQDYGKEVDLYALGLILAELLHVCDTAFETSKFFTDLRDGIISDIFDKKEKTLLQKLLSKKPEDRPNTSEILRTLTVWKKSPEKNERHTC

Biological target: GFP-tagged PC1-5TMC (polycystin-1 truncation comprising the last 5 TMs plus C-terminus, aa 3895-4302) (UniProt P98161)
Assay: co-IP; HeLa cells transfected with pEGFP-PC1-5TMC or pEGFP, collected 40 hr after transfection; extract immunoprecipitated with anti-GFP (EU4); blot with anti-GFP (B-2), reprobed with anti-mTOR or anti-PKR

binding: binds
Substance: Protein kinase RNA-activated (PKR) (from UniProt P19525 1-551)
